# Assay results published in the supplement of paper PMC10338343.
# ± gives the standard deviation. This is a selection; strong and weak results do not stand in their true shares. Many entries were measured with a wide error. The list shows a part of the results.
# Tests used:
# [1] = test system: MILI (PIWIL2) piRISC loaded with L1MC piRNA (26 nt); test: pre-steady-state target cleavage rate (min^-1); higher = faster piRNA-guided slicing of the target; conditions: guide: L1MC piRNA 5'p-UAACUAAAUACUAUGCAAGCUGUAGG
# In short: (§1)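 Reactions were run for 0–8 or 0–960 min at 33 °C in HEPES–potassium acetate buffer, combining 1 nM active affinity-purified piRISC with one synthetic guide, […] transcribed, DNA-blocked target RNA library and, in some cases, 500 nM GTSF1 partner protein. Sequencing of uncleaved targets followed, with normalisation to depth and to weakly complementary targets. Three trials were pooled, k3 was capped at 0.0001 min^-1, and the pre-steady-state cleavage rate was taken from a burst-and-steady-state fit.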
# [2] = test system: MIWI (PIWIL1) piRISC loaded with L1MC piRNA (30 nt); test: as above; conditions: guide: L1MC piRNA 5'p-UAACUAAAUACUAUGCAAGCUGUAGGUCCU
# In short: as §1
# [3] = test system: EfPiwi piRISC loaded with L1MC piRNA (26 nt); test: pre-steady-state target cleavage rate (min^-1); guide: L1MC piRNA 5'p-UAACUAAAUACUAUGCAAGCUGUAGG; MIWI and MILI are mouse PIWI proteins and EfPiwi is from a freshwater sponge; tags in brackets are library labels; higher = faster piRNA-guided slicing of the target; conditions: auxiliary factor: 500 nM Ephydatia muelleri Gtsf1
# In short: as §1
# [4] = auxiliary factor: 500 nM mouse GTSF1
# [5] = auxiliary factor: none (no GTSF1)
Sequence,"pre-steady-state target cleavage rate [1, 4]","pre-steady-state target cleavage rate [1, 5]","pre-steady-state target cleavage rate [2, 4]","pre-steady-state target cleavage rate [2, 5]",pre-steady-state target cleavage rate [3]
UCCUGGUACAGCUUGGUAAGUAUUUACAAA,0.00277 ± 0.0058,0.000887 ± 0.0067,0.00184 ± 0.0073,0.000853 ± 0.01,0.000595 ± 0.007
UCCUGGAUGUCGUUGCAUAGUAUUUACUUA,0.00161 ± 0.0077,0.000647 ± 0.011,0.00369 ± 0.0045,0.00155 ± 0.0054,0.000297 ± 0.012
UCCUGGAACAGCUUGCAUAGAUUUAGUUA,,0.001 ± 0.006,,0.00139 ± 0.0059,0.00187 ± 0.0026
UCCUGGAUGUGCUUGCAUUCAAUUUAGUAA,,0.000657 ± 0.0075,,0.000614 ± 0.012,0.000194 ± 0.022
UCCUGGAUGUCCUUGCAUACUAUUUAGUAA,,0.000947 ± 0.0046,,0.00115 ± 0.0044,0.00215 ± 0.0039
UCCUGGAACAGCUUCCAUAGUAAUUAGUUA,,0.000798 ± 0.0067,,0.00177 ± 0.0033,0.00201 ± 0.0027
UCCUGCUACAGCUUGCAUUCAAUUUUCAAA,,0.000815 ± 0.0061,,0.000642 ± 0.011,0.000379 ± 0.0078
UCCUGGAUGUCGAAGCUUAGUUUUUAGUUA,0.000508 ± 0.016,0.000367 ± 0.013,0.000532 ± 0.0096,0.00036 ± 0.012,0.000135 ± 0.033
UCCUGGAUCAGCUUGCAUACAUAAAUCAAA [g12:g22:cont:t1A],0.00115 ± 0.0082,0.000205 ± 0.011,0.00195 ± 0.0061,0.000409 ± 0.012,0.00121 ± 0.008
UCCUGGAUGUCGAAGCUUAGUAUAUAGUUA,,0.000139 ± 0.028,,0.000205 ± 0.028,0.0002 ± 0.016
UCCUGGAUGUCGUUGCAUAGUAUAAAGUUA,0.0728 ± 0.018,0.00407 ± 0.0022,0.00117 ± 0.0079,0.00189 ± 0.0047,0.000349 ± 0.0077
UCCUGGAUGUCCUUGCAUAGUACUUUAGUUA,0.0282 ± 0.011,0.00534 ± 0.0022,0.00373 ± 0.0043,0.00199 ± 0.0039,0.00138 ± 0.0032
UCCUGGAUGAGCUUGCAUACAAUUUAGUAA,0.000854 ± 0.0094,0.000185 ± 0.021,0.00119 ± 0.0083,0.000174 ± 0.014,0.000486 ± 0.0067
UCCUGGAUGUGCUUGCAUAGUUUUUAGAAA,0.00144 ± 0.0083,0.00113 ± 0.0051,0.0019 ± 0.0073,0.00199 ± 0.0034,0.000713 ± 0.0044
